From the supplement of paper PMC6411743
± gives the standard deviation of the averaged measurements. Only a part is listed here, and it is no random draw. Small differences around the control level are noise.

By UniProt entry, the sequences of proteins in these tests, tags left out. Where a name states a change or a piece, a line headed by the entry shows the natural chain unless it says otherwise.
UniProt Q9H4I3: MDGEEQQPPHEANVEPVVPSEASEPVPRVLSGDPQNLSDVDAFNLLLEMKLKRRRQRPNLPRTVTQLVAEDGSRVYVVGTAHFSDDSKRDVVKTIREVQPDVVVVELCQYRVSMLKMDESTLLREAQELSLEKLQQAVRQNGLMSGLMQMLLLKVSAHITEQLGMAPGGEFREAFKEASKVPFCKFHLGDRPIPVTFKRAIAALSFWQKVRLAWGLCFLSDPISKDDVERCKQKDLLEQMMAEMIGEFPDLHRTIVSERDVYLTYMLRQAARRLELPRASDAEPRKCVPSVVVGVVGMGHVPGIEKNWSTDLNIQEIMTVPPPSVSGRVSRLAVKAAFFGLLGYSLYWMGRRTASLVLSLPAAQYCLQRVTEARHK
UniProt P19105: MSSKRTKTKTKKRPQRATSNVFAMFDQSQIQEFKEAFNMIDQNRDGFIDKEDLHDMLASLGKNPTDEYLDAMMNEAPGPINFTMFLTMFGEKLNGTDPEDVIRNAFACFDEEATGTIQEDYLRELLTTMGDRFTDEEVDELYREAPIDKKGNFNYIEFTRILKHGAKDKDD
UniProt Q8WWI1: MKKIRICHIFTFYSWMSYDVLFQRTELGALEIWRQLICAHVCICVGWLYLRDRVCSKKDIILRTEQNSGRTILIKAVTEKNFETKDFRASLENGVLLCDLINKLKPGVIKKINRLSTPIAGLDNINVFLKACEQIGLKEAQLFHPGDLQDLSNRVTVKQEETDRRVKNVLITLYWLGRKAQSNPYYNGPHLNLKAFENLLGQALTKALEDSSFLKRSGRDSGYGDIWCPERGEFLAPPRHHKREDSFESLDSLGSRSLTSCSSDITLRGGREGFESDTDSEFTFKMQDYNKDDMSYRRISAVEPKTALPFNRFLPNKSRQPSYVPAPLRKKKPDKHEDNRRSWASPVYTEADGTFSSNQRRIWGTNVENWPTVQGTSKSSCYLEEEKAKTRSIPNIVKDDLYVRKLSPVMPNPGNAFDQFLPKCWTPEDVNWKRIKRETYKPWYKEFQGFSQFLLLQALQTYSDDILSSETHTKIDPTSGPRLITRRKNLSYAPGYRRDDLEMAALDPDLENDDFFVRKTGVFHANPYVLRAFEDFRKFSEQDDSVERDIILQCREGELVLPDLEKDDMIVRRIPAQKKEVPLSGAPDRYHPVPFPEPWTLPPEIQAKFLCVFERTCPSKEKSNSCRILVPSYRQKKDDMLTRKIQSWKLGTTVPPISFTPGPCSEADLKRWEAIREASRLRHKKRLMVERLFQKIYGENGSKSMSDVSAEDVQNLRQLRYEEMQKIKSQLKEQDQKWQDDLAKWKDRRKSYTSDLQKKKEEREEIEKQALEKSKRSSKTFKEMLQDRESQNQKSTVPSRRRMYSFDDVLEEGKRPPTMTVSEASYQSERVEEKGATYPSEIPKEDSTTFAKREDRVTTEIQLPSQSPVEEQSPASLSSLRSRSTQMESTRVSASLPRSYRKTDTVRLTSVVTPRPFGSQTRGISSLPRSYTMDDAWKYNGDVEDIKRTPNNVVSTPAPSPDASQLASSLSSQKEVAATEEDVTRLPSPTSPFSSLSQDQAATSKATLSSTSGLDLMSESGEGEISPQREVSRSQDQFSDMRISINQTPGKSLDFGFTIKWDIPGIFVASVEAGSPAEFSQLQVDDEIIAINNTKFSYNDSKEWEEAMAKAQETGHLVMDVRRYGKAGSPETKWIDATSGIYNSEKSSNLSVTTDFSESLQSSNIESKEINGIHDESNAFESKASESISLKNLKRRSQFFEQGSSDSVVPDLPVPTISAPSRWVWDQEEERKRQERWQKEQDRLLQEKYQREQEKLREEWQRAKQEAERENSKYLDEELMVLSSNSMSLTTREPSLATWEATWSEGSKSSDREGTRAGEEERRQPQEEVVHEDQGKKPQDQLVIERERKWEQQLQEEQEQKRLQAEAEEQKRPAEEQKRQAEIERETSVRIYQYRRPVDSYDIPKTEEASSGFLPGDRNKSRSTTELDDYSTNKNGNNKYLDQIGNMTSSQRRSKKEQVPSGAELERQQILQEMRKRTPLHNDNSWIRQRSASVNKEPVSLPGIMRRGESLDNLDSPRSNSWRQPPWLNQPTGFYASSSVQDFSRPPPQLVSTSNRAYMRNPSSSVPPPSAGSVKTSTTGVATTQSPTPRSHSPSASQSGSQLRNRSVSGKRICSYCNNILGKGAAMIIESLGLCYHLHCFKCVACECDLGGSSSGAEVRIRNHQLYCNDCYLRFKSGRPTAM
UniProt O95759: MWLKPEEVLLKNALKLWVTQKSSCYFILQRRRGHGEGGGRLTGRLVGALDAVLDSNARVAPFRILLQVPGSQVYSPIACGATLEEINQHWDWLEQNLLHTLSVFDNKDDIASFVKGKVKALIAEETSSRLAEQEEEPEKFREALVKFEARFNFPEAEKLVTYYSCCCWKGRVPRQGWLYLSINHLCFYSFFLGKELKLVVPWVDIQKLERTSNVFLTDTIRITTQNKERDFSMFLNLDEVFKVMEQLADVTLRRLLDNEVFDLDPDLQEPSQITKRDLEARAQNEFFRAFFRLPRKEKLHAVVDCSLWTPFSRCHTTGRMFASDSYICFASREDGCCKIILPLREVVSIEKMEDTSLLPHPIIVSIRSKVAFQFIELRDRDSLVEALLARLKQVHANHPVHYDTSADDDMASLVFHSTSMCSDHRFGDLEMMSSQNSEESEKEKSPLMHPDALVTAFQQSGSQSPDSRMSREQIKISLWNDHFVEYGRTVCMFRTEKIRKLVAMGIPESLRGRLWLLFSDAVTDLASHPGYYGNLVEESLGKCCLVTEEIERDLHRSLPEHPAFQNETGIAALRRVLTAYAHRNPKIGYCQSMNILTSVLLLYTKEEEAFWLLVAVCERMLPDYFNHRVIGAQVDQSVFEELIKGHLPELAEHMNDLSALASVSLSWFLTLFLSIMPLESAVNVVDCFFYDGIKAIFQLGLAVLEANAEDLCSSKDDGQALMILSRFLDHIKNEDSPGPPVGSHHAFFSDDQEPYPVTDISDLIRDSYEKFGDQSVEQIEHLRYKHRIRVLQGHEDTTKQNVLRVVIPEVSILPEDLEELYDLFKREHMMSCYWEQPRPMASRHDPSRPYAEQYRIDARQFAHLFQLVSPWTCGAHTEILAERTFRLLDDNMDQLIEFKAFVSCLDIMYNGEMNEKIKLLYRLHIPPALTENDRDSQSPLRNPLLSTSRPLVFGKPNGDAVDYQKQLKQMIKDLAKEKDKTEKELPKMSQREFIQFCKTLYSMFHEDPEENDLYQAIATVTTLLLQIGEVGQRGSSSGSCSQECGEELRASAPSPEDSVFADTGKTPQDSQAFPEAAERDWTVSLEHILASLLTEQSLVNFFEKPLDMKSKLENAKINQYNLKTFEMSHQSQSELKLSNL
UniProt P63027, whole entry, looked up: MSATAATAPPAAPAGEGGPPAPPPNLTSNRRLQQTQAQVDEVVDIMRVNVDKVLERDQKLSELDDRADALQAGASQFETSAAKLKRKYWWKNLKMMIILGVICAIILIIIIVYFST
UniProt Q96CD2: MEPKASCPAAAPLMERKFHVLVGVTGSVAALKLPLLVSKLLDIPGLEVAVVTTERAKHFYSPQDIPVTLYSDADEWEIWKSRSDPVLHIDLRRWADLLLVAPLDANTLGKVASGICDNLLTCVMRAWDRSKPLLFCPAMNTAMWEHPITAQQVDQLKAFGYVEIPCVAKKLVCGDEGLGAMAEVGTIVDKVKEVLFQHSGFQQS
UniProt Q9BV68: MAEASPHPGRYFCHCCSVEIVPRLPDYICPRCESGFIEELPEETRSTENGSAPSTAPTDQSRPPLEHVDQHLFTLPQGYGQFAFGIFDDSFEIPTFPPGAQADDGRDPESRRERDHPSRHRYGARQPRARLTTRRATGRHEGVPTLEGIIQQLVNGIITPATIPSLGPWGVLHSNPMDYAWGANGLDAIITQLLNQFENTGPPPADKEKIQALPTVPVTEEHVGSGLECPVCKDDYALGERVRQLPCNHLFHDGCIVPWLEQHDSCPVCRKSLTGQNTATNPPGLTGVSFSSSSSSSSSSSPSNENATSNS
UniProt Q68DK7: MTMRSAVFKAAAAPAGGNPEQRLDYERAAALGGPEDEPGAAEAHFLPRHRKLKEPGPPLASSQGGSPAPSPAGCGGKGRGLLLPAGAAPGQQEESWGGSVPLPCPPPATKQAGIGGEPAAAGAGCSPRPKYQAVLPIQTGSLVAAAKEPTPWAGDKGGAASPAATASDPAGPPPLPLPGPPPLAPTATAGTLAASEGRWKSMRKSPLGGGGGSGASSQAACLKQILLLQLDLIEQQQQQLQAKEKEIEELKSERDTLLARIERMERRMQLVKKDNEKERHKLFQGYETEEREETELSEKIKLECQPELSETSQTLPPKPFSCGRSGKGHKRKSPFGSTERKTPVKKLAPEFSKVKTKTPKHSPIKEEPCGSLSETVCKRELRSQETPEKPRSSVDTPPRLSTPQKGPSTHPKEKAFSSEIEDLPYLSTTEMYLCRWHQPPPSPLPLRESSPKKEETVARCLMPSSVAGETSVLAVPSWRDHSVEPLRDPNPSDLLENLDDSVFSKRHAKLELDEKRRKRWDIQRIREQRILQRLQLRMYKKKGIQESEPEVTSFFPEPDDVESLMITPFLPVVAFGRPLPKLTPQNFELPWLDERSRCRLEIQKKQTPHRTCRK
UniProt Q9UPW5: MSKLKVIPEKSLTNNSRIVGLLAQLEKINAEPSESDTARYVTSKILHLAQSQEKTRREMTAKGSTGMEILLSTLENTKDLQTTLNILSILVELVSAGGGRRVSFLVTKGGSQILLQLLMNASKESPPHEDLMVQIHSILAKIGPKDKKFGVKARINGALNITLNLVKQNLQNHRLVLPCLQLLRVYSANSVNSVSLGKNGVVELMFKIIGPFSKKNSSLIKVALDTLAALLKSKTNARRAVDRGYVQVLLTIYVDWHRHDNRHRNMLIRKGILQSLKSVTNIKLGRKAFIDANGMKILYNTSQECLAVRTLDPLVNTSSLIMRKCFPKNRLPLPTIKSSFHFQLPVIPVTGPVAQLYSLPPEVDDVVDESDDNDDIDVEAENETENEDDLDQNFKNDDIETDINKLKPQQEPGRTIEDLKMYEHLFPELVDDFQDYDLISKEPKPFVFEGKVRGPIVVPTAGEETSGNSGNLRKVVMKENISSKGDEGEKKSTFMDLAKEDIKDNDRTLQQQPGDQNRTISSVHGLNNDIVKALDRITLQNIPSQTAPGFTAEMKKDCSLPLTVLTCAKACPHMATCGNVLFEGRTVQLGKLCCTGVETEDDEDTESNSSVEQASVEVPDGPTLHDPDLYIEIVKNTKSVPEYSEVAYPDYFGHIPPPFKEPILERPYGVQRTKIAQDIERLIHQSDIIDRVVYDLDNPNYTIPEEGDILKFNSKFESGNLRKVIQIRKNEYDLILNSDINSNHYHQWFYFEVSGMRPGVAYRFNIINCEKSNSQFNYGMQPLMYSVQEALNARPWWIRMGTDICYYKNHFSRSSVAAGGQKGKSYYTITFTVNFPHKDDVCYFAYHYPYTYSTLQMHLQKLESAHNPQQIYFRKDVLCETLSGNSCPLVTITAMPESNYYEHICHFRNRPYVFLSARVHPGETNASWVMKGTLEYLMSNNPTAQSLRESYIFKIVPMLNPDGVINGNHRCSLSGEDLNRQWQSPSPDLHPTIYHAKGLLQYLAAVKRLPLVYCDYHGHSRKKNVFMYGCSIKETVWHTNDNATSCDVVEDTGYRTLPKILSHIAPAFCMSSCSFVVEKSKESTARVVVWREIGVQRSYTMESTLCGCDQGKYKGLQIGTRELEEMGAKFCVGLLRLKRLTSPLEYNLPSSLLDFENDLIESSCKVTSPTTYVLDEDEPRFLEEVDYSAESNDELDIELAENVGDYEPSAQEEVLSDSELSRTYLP
UniProt Q15287: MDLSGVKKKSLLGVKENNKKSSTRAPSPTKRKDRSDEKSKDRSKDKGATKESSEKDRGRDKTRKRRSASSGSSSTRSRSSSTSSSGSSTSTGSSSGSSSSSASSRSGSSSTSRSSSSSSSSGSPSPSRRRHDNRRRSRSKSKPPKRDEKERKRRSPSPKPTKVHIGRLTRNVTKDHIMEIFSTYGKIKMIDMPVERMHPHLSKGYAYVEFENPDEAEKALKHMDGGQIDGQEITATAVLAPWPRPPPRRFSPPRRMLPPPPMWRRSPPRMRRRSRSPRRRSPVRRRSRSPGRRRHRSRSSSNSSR
UniProt Q8N1S5: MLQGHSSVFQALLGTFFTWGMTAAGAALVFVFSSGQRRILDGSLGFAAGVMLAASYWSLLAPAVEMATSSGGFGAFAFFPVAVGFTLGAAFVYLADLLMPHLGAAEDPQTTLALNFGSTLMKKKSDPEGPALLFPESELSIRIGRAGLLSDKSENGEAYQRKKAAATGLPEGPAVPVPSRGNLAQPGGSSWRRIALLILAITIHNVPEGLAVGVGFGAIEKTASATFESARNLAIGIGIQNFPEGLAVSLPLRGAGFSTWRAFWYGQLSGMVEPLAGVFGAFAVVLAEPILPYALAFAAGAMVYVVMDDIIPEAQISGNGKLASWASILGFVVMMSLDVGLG

Compound: Nc1ncnc2c1ncn2[C@@H]1O[C@H](COP(=O)(O)OP(=O)(O)NP(=O)(O)O)[C@@H](O)[C@H]1O [adenylyl imidodiphosphate]
Assay: NP40-soluble protein abundance relative to vehicle (solubility fold change) (ratio); higher = more soluble protein in presence of AMP-PNP
Method in brief: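 Across three independent experiments, values are fold changes against the detergent-processed vehicle for each replicate, based on vsn-normalised intensities. The samples were Jurkat crude lysate treated with eight concentrations (0.1 to 10 mM) for 10 min at room temperature and then 3 min at 37 °C. Lysate was solubilised with 0.8% NP40 and benzonase, ultracentrifuged, and the supernatant analysed by TMT-labelled LC-MS/MS.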

Row | Target | NP40-soluble protein abundance (concentration: 0.1mM) | NP40-soluble protein abundance (concentration: 0.5mM)
1 | J3KPT4 and related entries (UniProt Q9H4I3) | 1 ± 0.029 | 1.01 ± 0.08
2 | H0YL70 and related entries (UniProt Q04726) | 1.02 ± 0.038 | 0.973 ± 0.035
3 | H3BPT7 and related entries (UniProt Q8N554) | 0.982 ± 0.0079 | 1.01 ± 0.032
4 | J3KPF0 (UniProt Q9Y4D8) | 1.01 ± 0.037 | 0.986 ± 0.051
5 | K7EIU8 and related entries (UniProt Q13485) | 1.03 ± 0.052 | 1.01 ± 0.05
6 | H3BTR4 and related entries (UniProt Q96BT3) | 1.02 ± 0.059 | 1.05 ± 0.039
7 | J3QSH4 and related entries (UniProt Q14119) | 0.963 ± 0.021 | 0.973 ± 0.048
8 | H7BYU6 and related entries (UniProt Q96K83) | 0.987 ± 0.042 | 0.9846 ± 0.0061
9 | J3QRS3 and related entries (UniProt P19105+O14950+J3QRS3) | 1.05 ± 0.07 | 1.13 ± 0.087
10 | H7C2F9 and related entries (UniProt Q15032) | 0.975 ± 0.028 | 0.965 ± 0.029
11 | J3QL56 and related entries (UniProt O75880) | 0.984 ± 0.012 | 1.01 ± 0.043
12 | H0YJI2 and related entries (UniProt Q15643) | 0.977 ± 0.032 | 0.972 ± 0.025
13 | H0YIV9 and related entries (UniProt O43716+H0YIV9) | 0.998 ± 0.019 | 1.029 ± 0.0036
14 | H7C1I0 and related entries (UniProt Q96K37) | 1.024 ± 0.0063 | 1.02 ± 0.032
15 | J3KP06 and related entries (UniProt Q8WWI1) | 1.02 ± 0.051 | 1.05 ± 0.021
16 | J3KQ40 and related entries (UniProt O95759) | 1.01 ± 0.014 | 1 ± 0.021
17 | H7BZB3 and related entries (UniProt P27708) | 1.04 ± 0.028 | 1 ± 0.076
18 | H3BLS7 and related entries (UniProt Q5THJ4) | 0.964 ± 0.087 | 0.971 ± 0.041
19 | H0YN33 and related entries (UniProt Q9BW66) | 1.02 ± 0.037 | 1.09 ± 0.058
20 | G3XA86 and related entries (UniProt Q9Y2Z9) | 0.994 ± 0.018 | 1.01 ± 0.03
21 | H3BSW0 and related entries (UniProt Q8N9N7) | 0.991 ± 0.028 | 0.986 ± 0.033
22 | H0YEF3 and related entries (UniProt Q8TDP1) | 1.01 ± 0.026 | 1 ± 0.042
23 | I3L072 and related entries (UniProt Q9BSJ5) | 0.989 ± 0.037 | 1 ± 0.038
24 | H3BMM5 and related entries (UniProt Q96AX1+H3BMM5) | 1.06 ± 0.042 | 0.992 ± 0.049

Full records as entered above:
H3BPT7 and related entries (UniProt Q8N554) is entered as NP40-soluble protein abundance (concentration: 0.1mM): 0.982 ± 0.0079; NP40-soluble protein abundance (concentration: 0.5mM): 1.01 ± 0.032
I3L072 and related entries (UniProt Q9BSJ5) is entered as NP40-soluble protein abundance (concentration: 0.1mM): 0.989 ± 0.037; NP40-soluble protein abundance (concentration: 0.5mM): 1 ± 0.038
J3QL56 and related entries (UniProt O75880) is entered as NP40-soluble protein abundance (concentration: 0.1mM): 0.984 ± 0.012; NP40-soluble protein abundance (concentration: 0.5mM): 1.01 ± 0.043

(cont.)

Row | Target | NP40-soluble protein abundance (concentration: 0.1mM) | NP40-soluble protein abundance (concentration: 0.5mM)
25 | J3KPD3 and related entries (UniProt Q9Y580) | 0.961 ± 0.018 | 0.979 ± 0.027
26 | J3QKT3 and related entries (UniProt P32322) | 0.996 ± 0.059 | 1.03 ± 0.062
27 | I3L112 and related entries (UniProt P52429) | 1.05 ± 0.041 | 1 ± 0.075
28 | G3V529 and related entries (UniProt Q9GZR7) | 1.01 ± 0.033 | 1.01 ± 0.039
29 | H3BPJ9 and related entries (UniProt O96000) | 1.01 ± 0.093 | 1.03 ± 0.15
30 | J3KNQ6 and related entries (UniProt Q86VK4) | 1.018 ± 0.0029 | 1.042 ± 0.0033
31 | J3QRU4 and related entries (UniProt P63027+L7N2F9+J3QRU4) | 0.965 ± 0.028 | 0.995 ± 0.032
32 | H7BY16 and related entries (UniProt P19338) | 0.941 ± 0.013 | 0.997 ± 0.07
33 | J3QLS3 and related entries (UniProt Q9Y2R9) | 1.03 ± 0.038 | 1.01 ± 0.017
34 | J3KNF8 and related entries (UniProt O43169) | 1.04 ± 0.11 | 1.07 ± 0.12
35 | H0YNU5 and related entries (UniProt P54132) | 1.016 ± 0.0062 | 1.01 ± 0.02
36 | H3BRQ0 and related entries (UniProt Q96CD2) | 0.971 ± 0.04 | 1 ± 0.037
37 | G3V532 and related entries (UniProt O75843) | 0.988 ± 0.021 | 0.974 ± 0.063
38 | J9JID7 and related entries (UniProt Q03252) | 0.98 ± 0.029 | 1.01 ± 0.08
39 | K7EIY6 and related entries (UniProt Q9BV68) | 0.995 ± 0.027 | 0.996 ± 0.034
40 | J3KSZ8 and related entries (UniProt Q68DK7) | 0.985 ± 0.012 | 1.01 ± 0.018
41 | J3KNS1 and related entries (UniProt Q9UPW5) | 1 ± 0.026 | 0.979 ± 0.031
42 | H3BM21 and related entries (UniProt P05106+I3L4X8+H3BM21) | 0.992 ± 0.031 | 0.9977 ± 0.0079
43 | H3BMM9 and related entries (UniProt Q15287) | 1.07 ± 0.06 | 1.03 ± 0.06
44 | J3QLB2 and related entries (UniProt Q8N1S5) | 0.991 ± 0.024 | 0.932 ± 0.044
45 | H0Y6A0 and related entries (UniProt Q9NP61) | 0.978 ± 0.024 | 0.953 ± 0.013
46 | I3L397 and related entries (UniProt P63241) | 0.91 ± 0.17 | 0.812 ± 0.13
47 | H3BMQ0 and related entries (UniProt P49815) | 0.9806 ± 0.0077 | 0.967 ± 0.027
